Measured values: patent publication US20230242679A1, “BISPECIFIC ANTIBODY THERAPIES” (priority 2022, published 2023)
At least one compound was matched to its structure with a doubt left.

Test system: normal human PBMC
Assay: Cytokine release assay in normal human PBMC stimulated with LPS or Poly (I:C)
Assay type: cell-based
Details: 24 h supernatant, CTO1681 750 μM

CC#CC[C@H](C)[C@H](O)/C=C/[C@@H]1[C@H]2c3cccc(CCCC(=O)[O-])c3O[C@H]2C[C@H]1O.[Na+] [CTO1681, (+)-[1R, 2R, 3aS, 8bS]-2,3,3a,8b-tetrahydro-2-hydroxy-1-[(E)-(3S,4S)-3-hydroxy-4-methyl-1-octen-6-ynyl)-1Hcyclopenta[b]benzofuran-5-butanoic acid, monosodium salt]
NO: Cytokine response GCSF (significant reduction) (LPS) | Cytokine response IL-2 (significant reduction) (LPS) | Cytokine response IL-6 (significant reduction) (LPS) | Cytokine response IL-8 (significant reduction) (LPS) | Cytokine response IL-10 (significant reduction) (LPS) | Cytokine response TGF-β (significant reduction) (LPS) | Cytokine response CCL3 (MIP1 α) (significant reduction) (Poly(I:C)) | Cytokine response FGF (significant reduction) (Poly(I:C)) | Cytokine response GCSF (significant reduction) (Poly(I:C)) | Cytokine response IL-2 (significant reduction) (Poly(I:C)) | Cytokine response IL-6 (significant reduction) (Poly(I:C)) | Cytokine response IL-8 (significant reduction) (Poly(I:C)) | Cytokine response IL-9 (significant reduction) (Poly(I:C)) | Cytokine response IL-10 (significant reduction) (Poly(I:C)) | Cytokine response IL-17 (significant reduction) (Poly(I:C)) | Cytokine response TGF-β (significant reduction) (Poly(I:C))
